Test results taken from patent US7666307B2, “Particle size reduction of bioactive compounds” (K.U. Leuven Research & Development, priority 2003, dated 2010).
At least one structure is not confirmed: it was looked up by name or label, or the drawing left a doubt.

Assay: X-ray diffraction peak widths of itraconazole samples (peak broadening indicates nano-sized particles)
Format: physicochemical
Conditions: XRD, lyophilised powder

CCC(C)n1ncn(-c2ccc(N3CCN(c4ccc(OCC5COC(Cn6cncn6)(c6ccc(Cl)cc6Cl)O5)cc4)CC3)cc2)c1=O (centres unmarked) [crystalline itraconazole, itraconazole]
width of diffractogram peak 2theta = 20.6: 0.19
width of diffractogram peak 2theta = 23.6: 0.22
